Key:
[1] = tested on: TNFα release from THP-1 cells; assay: Inhibition of TNFα release from LPS-stimulated THP-1 cells, ELISA; format: cell-based; settings: Homo sapiens, THP-1, THP-1 cells, read-out: [CELL] THP-1, IC50, TNF ALPHA, ELISA
Excerpt: Compounds of the invention are screened for the ability to inhibit TNFα and IL-1β release from THP-1 cells stimulated with lipopolysaccharide (LPS) in vitro. The ability of compounds to inhibit TNFα and IL-1β release in this in vitro assay is correlated with the inhibition of p38 activity and TNFα and IL-1β expression in vivo, and is therefore an indicator of potential in vivo therapeutic activity (Lee J. C. et al, Ann. N.Y. Acad. Sci. 696: 149-170, 1993 and Nature, 372: 739-746, 1994).
Materials: THP-1 cells from ATCC (TIB202) are maintained at 37° C., 5% CO2 in RPMI 1640 media (available from MediaTech, Herndon, Va.) containing 4.5 g/L glucose, supplemented with 10% fetal bovine serum, 1% penicillin/streptomycin and 50 μM β-mercaptoethanol.
Methods: Test compounds are initially dissolved in RPMI media with 1% DMSO (v/v). Compounds are then serially diluted in RPMI media for all subsequent dilutions. The assay is performed under sterile conditions. THP-1 cells at a culture density of 6-8×10^5 cells/ml are collected and resuspended in the RPMI media at 10^6 cells/ml containing 10% fetal bovine serum, no serum or 1% human serum albumin (HSA). […] TNFα and IL-1β levels are measured using ELISA kits from Biosource (Catalog no. KHC3012 for TNFα; KAC1192 for IL-1β). A SpectraMAX 250 is used as the plate reader. […]

CCOC(=O)N1CCN(c2nccc(Oc3ccc(NC(=O)c4cc(F)cc(N5CCCCC5)c4)c4ccccc34)n2)CC1 [Compound B376, Ethyl 4-[4-({4-[(3-fluoro-5-piperidin-1-ylbenzoyl)amino]-1-naphthyl}oxy)pyrimidin-2-yl]piperazine-1-carboxylate]
IC50 [1]: > 1000 nM | melting point: 105 to 106 °C
